Results on 13 molecules are retold here after PMC7982423.

By UniProt entry, the sequences of proteins in these tests, tags left out. Residues count along the entry.
UniProt F8VQ29: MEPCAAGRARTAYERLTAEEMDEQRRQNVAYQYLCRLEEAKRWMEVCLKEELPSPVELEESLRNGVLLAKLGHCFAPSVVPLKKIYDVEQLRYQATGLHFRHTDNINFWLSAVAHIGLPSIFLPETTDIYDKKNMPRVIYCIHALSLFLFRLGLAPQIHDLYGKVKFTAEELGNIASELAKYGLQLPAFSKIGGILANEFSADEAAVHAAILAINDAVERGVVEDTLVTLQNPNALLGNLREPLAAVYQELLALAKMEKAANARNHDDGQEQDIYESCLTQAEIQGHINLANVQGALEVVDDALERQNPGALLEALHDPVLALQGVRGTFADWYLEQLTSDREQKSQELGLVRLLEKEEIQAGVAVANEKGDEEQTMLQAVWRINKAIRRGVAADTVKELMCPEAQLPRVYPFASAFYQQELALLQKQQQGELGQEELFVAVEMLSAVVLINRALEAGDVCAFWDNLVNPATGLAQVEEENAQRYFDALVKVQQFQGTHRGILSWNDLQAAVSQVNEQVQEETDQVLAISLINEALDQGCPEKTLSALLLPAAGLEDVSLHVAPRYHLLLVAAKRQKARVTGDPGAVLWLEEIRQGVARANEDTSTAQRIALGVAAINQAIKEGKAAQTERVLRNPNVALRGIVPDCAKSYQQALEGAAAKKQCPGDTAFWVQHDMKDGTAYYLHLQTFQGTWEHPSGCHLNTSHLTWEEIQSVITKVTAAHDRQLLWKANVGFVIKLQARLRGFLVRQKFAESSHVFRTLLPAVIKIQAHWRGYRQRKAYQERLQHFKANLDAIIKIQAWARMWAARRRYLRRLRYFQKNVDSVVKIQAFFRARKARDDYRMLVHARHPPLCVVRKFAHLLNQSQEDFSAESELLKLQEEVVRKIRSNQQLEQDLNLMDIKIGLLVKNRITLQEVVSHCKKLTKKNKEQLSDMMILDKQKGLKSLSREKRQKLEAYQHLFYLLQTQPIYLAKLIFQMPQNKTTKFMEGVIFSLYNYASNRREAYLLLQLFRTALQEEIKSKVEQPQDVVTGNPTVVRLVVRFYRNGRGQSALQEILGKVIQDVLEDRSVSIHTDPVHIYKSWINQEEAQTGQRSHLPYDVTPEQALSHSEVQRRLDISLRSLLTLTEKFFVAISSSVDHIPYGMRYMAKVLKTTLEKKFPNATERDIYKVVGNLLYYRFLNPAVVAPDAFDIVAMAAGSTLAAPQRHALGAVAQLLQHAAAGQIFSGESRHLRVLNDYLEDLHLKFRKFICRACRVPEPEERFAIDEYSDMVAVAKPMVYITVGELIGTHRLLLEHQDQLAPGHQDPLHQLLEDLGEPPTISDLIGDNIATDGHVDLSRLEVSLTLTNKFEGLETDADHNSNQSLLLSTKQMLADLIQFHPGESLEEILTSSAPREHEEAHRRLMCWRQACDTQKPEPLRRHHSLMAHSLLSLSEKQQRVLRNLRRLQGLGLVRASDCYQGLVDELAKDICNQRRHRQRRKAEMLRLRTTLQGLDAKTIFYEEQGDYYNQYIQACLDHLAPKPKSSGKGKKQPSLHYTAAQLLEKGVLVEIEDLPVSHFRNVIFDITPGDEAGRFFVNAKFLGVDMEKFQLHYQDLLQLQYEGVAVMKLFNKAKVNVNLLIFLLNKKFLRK
UniProt P31041, residues 20-218: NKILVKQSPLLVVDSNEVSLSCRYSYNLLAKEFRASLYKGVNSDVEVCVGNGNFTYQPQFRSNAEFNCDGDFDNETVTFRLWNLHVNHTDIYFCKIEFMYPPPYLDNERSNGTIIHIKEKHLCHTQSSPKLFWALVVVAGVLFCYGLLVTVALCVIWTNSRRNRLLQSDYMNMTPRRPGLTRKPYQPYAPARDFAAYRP
UniProt Q60631: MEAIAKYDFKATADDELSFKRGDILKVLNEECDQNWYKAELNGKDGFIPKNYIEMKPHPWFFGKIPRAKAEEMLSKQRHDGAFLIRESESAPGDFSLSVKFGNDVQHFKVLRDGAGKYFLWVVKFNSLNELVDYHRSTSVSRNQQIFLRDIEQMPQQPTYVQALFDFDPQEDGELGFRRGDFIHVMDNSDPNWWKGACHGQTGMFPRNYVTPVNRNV
UniProt Q64339, residues 1-155: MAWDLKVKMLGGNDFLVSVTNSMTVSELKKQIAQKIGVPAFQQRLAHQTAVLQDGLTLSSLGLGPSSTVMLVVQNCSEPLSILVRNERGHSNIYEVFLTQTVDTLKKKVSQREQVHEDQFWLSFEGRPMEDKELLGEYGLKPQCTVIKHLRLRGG
UniProt O08908: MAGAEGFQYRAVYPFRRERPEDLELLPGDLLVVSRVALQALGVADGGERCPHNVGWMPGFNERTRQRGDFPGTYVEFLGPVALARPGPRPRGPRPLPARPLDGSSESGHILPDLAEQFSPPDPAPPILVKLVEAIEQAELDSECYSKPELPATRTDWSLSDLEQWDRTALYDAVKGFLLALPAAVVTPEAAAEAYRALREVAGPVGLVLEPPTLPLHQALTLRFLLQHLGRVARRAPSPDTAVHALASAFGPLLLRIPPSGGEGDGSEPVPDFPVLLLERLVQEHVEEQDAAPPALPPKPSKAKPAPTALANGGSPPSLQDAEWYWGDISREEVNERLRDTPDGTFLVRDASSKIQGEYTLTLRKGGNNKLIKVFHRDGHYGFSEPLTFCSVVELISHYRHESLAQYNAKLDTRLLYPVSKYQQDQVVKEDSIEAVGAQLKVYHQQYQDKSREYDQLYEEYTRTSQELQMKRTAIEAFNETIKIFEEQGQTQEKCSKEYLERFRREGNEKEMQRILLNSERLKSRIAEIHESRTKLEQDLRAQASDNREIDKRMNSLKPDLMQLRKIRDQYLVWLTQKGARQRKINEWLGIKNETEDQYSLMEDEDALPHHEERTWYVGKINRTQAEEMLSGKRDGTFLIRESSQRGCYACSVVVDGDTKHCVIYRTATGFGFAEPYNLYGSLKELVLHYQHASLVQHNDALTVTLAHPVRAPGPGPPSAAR
UniProt Q9Z1S8: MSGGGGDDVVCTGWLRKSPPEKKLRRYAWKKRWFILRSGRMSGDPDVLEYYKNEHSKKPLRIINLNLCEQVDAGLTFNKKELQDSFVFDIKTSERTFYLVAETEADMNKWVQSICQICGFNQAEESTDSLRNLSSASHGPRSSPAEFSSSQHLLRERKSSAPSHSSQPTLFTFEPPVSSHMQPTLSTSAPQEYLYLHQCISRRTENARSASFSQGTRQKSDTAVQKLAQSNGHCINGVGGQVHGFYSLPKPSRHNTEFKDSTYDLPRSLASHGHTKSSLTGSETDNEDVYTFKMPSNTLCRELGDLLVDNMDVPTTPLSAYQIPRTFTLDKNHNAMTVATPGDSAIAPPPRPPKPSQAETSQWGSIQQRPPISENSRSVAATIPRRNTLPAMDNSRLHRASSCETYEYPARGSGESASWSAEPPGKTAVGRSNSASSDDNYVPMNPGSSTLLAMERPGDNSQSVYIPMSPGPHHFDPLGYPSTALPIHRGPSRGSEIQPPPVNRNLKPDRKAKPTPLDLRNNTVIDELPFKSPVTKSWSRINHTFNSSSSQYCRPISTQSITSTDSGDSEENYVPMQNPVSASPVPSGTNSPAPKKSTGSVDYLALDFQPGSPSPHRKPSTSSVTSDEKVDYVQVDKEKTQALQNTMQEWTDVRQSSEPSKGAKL
UniProt Q8R550: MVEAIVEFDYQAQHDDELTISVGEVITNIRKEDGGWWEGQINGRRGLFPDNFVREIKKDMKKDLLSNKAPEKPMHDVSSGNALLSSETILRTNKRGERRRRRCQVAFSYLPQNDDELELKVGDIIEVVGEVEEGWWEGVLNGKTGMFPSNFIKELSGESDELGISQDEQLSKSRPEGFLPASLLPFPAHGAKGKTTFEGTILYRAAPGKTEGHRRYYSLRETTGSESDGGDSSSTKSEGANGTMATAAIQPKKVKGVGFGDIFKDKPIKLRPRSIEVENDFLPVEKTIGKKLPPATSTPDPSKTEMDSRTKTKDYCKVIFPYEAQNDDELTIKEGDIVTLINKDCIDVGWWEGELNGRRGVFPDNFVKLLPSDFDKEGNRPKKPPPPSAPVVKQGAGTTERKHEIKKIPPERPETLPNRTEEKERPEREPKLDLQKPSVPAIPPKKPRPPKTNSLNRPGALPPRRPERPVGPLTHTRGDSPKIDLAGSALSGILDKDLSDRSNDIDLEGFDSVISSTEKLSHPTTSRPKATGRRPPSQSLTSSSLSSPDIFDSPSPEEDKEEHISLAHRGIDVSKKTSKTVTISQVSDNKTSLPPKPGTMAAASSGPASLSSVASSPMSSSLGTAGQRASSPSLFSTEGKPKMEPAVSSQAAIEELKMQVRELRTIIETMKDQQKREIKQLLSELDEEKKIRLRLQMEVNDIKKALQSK

Results are given in words; binding and its absence hold for the method and conditions named. In cells and extracts the contact can be indirect. Here binding means that the protein was enriched with, or labelled near, the bait; the list need not be complete. For part of these data: A no says only that the protein was not detected with the bait. Sequences can lack the tags named with a protein.

In test [1] the target is T1, p110δ with a C-terminal AviTag (p110δ-AviTag) (mouse) (UniProt O35904).
T1 sequence (chain, biotin on the AviTag (biotinylated in vivo by BirA)): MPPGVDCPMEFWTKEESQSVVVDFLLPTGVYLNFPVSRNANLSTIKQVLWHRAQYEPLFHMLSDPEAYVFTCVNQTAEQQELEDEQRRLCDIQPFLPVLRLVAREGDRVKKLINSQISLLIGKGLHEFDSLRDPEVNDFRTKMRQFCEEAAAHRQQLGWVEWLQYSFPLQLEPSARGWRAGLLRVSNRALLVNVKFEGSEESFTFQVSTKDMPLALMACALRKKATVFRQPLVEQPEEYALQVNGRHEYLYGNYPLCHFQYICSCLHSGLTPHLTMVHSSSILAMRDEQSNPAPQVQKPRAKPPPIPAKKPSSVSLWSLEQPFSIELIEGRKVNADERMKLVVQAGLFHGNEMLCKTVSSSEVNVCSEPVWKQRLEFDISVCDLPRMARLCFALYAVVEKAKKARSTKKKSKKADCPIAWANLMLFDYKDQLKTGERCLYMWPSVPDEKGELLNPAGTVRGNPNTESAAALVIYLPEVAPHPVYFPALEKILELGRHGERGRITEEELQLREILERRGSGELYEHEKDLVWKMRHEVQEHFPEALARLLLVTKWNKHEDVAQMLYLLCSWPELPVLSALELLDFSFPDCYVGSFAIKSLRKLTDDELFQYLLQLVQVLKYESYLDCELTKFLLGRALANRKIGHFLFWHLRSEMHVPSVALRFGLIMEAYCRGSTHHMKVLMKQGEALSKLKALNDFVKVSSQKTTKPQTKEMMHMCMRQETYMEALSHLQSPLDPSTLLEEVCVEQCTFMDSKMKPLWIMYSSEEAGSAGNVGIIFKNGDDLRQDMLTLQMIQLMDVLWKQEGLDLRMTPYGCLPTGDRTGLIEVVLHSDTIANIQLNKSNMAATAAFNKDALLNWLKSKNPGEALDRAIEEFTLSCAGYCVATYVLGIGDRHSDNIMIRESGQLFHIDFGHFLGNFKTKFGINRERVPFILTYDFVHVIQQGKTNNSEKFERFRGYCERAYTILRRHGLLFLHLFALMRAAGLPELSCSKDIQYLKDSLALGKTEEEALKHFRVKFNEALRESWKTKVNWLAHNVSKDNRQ
Description: affinity purification with mass spectrometry; streptavidin beads capture biotinylated p110δ-AviTag from lysates of CD4+ T cell blasts stimulated for 1 min by CD3-CD4-crosslinking (unstimulated cells compared); control purifications from BirA^Tg cells; TMT-labelled nLC-MS/MS, three independent experiments; specific: >1.5-fold enriched, p < 0.05.

In test [2] the target is T1, p110δ with a C-terminal AviTag (p110δ-AviTag) (mouse). Description: affinity purification with mass spectrometry; as a3, CD4+ T cell blasts left unstimulated.
For test [3] the target is unchanged. In words: affinity purification with mass spectrometry; as a8, naive CD4+ T cells left unstimulated.
Test [4] has the same target. In words: affinity purification with mass spectrometry; streptavidin beads capture biotinylated p110δ-AviTag from lysates of naive CD4+ T cells stimulated for 1 min by CD3-CD4-crosslinking (unstimulated cells compared); control purifications from BirA^Tg cells; TMT-labelled nLC-MS/MS, three independent experiments; specific: >1.5-fold enriched, p < 0.05 and not classed as non-specific in blasts.

Take “IQGAP3 (adaptor protein) (from UniProt F8VQ29 1-1632)”: the binding entry in test [1] is “binds”.
Same read-out and setting: the entry for “CD28 (co-stimulatory receptor) (from UniProt P31041 20-218)” is “no binding”.
As for “CBL (E3 ligase and adaptor) (from UniProt P22682 1-913)”, the binding result was “no binding (only cells without TCR stimulation)” in test [2], “binds” in test [1], “no binding (only cells without TCR stimulation)” in test [3] and “binds” in test [4].
Turning to “GRB2 (adaptor protein) (from UniProt Q60631 1-217)”, the binding entry was “no binding (only cells without TCR stimulation)” in test [2], “binds” in test [1], “no binding (only cells without TCR stimulation)” in test [3] and “binds” in test [4].
On to ISG15 (from UniProt Q64339 1-155), for which the binding result in test [1] and in test [4] was “binds” each time.
As to “SHP-2 (protein phosphatase) (from UniProt P35235 1-593) (enzyme)”, the binding result in test [2] is “no binding (only cells without TCR stimulation)”; in test [1], “binds”; in test [3], “no binding (only cells without TCR stimulation)”; in test [4], “binds”.
For the molecule “p85β (PI3K regulatory subunit) (from UniProt O08908 1-722)”, the binding entry in test [1] and in test [4] was “binds” throughout.
Take “GAB2 (Gab-family adaptor protein) (from UniProt Q9Z1S8 1-665)”: the binding entry in test [2] is given as “no binding (only cells without TCR stimulation)”; in test [1], “binds”.
Turning to “SH3KBP1 (adaptor protein) (from UniProt Q8R550 1-709)”, the binding result in test [1] and in test [4] was “binds” throughout.

B1: ICOS (co-stimulatory receptor) (receptor, UniProt Q9WVS0 21-200)
chain: EINGSADHRMFSFHNGGVQISCKYPETVQQLKMRLFREREVLCELTKTKGSGNAVSIKNPMLCLYHLSNNSVSFFLNNPDSSQGSYYFCSLSIFDPPPFQERNLSGGYLHIYESQLCCQLKLWLPVGCAAFVVVLLFGCILIIWFSKKKYGSSVHDPNSEYMFMAAVNTNKKSRLAGVTS
For the molecule B1, the binding entry in test [2] is reported as “no binding (only cells without TCR stimulation)”; in test [1], “binds”.

B2: DIAPH2 (formin) (protein, UniProt O70566 1-1098)
chain: MEELGAAASGAGGGGGGGEEHGGGRSNKRGAGNRAANEEETRNKPKLRDRITSFRKSATKREKPVIQHSIDYQTAVVEIPPALIVHDDRSLILSEKEVLDLFEKMMEDMNLNEEKKAPLRKKDFSIKREMVVQYISATSKSIVGSKVLGGLKNSKHEFTLSSQEYVHELRSGISDEKLLNCLESLRVSLTSHPVSWVNNFGYEGLGVLLDVLEKLLDKKQQENIDKKNQYKVIQCLKAFMNNKFGLQRILGDERSLLLLARAIDPKQQNMMTEIVKILSAICIVGEENILDKLLGGITAAAELNNRERFSPIVEGLENNEALHLQVACMQFINALVTSPYDLDFRIHLRNEFLRCGLKAMLPTLKEIENEGLDIQLRVFEENKEDDLSELSHRLNDIRAEMDDINEVYHLLYNMLKDTAAEPYLLSILQHFLLIRNDYYIRPQYYKIIEECVSQIVLHCSGMDPDFKYRQRIDFDFTHLLDACVNKAKVEENEQKAMEFSKKFDEEFTARQEAQAELQKRDEKIKELETEIQQLRGQGVPSAIPGPPPPPPLPGAGPCPPPPPPPPPPPPLPGVVPPPPPPLPGMPGIPPPPPPPLSGVPPPPPPPGGVFPLLSGPIELPYGMKQKKLYKPDIPMKRINWSKIEPKELSENCVWLKLKEEKYENADLFAKLALTFPSQMKGQRNTEAAEENRSGPPKKKVKELRILDTKTAQNLSIFLGSYRMPYEEIKNIILEVNEEMLSEALIQNLVKYLPDQNALRELAQLKSEYDDLCEPEQFGVVMSTVKMLRPRLTSILFKLTFEEHVNNIKPSIIAVTLACEELKKSESFKRLLELILLVGNYMNSGSRNAQSLGFKINFLCKIKDTKSADQKSTLLHFLAEICDEKYRDILKFPDELEHVESAGKVSAQILKSNLVAMEQSILHLEKNIKNFPPAESHHDKFVEKMMSFTQNAREQYDKLSTMHSNMLKLYESLGEYFIFDPNTVNMEEFFGDLNTFRTLFLEALKENHKRKEMEEKSRRAKLAKEKAEQEKLERQKKKKQLIDINKEGDETGVMDNLLEALQSGAAFRDRRKRIPRNPDNRRPPLERSRSRHNGAMSSK
Take B2: the binding result in test [1] and in test [4] was “binds” in each case.

B3: IRS2 (adaptor protein) (protein, UniProt P81122 1-1321)
chain: MASAPLPGPPASAGGDGPNLNNNNNNNNHSVRKCGYLRKQKHGHKRFFVLRGPGTGGDEASAAGGSPPQPPRLEYYESEKKWRSKAGAPKRVIALDCCLNINKRADAKHKYLIALYTKDEYFAVAAENEQEQEGWYRALTDLVSEGRSGEGGSGTTGGSCSASLPGVLGGSAGAAGCDDNYGLVTPATAVYREVWQVNLKPKGLGQSKNLTGVYRLCLSARTIGFVKLNCEQPSVTLQLMNIRRCGHSDSFFFIEVGRSAVTGPGELWMQADDSVVAQNIHETILEAMKALKELFEFRPRSKSQSSGSSATHPISVPGARRHHHLVNLPPSQTGLVRRSRTDSLAATPPAAKCTSCRVRTASEGDGGAAGGAGTAGGRPMSVAGSPLSPGPVRAPLSRSHTLSAGCGGRPSKVTLAPAGGALQHSRSMSMPVAHSPPAATSPGSLSSSSGHGSGSYPLPPGSHPHLPHPLHHPQGQRPSSGSASASGSPSDPGFMSLDEYGSSPGDLRAFSSHRSNTPESIAETPPARDGSGGELYGYMSMDRPLSHCGRPYRRVSGDGAQDLDRGLRKRTYSLTTPARQRQVPQPSSASLDEYTLMRATFSGSSGRLCPSFPASSPKVAYNPYPEDYGDIEIGSHKSSSSNLGADDGYMPMTPGAALRSGGPNSCKSDDYMPMSPTSVSAPKQILQPRLAAALPPSGAAVPAPPSGVGRTFPVNGGGYKASSPAESSPEDSGYMRMWCGSKLSMENPDPKLLPNGDYLNMSPSEAGTAGTPPDFSAALRGGSEGLKGIPGHCYSSLPRSYKAPCSCSGDNDQYVLMSSPVGRILEEERLEPQATPGAGTFGAAGGSHTQPHHSAVPSSMRPSAIGGRPEGFLGQRCRAVRPTRLSLEGLQTLPSMQEYPLPTEPKSPGEYINIDFGEAGTRLSPPAPPLLASAASSSSLLSASSPASSLGSGTPGTSSDSRQRSPLSDYMNLDFSSPKSPKPSTRSGDTVGSMDGLLSPEASSPYPPLPPRPSTSPSSLQQPLPPAPGDLYRLPPASAATSQGPTAGSSMSSEPGDNGDYTEMAFGVAATPPQPIVAPPKPEGARVASPTSGLKRLSLMDQVSGVEAFLQVSQPPDPHRGAKVIRADPQGGRRRHSSETFSSTTTVTPVSPSFAHNSKRHNSASVENVSLRKSSEGSSTLGGGDEPPTSPGQAQPLVAVPPVPQARPWNPGQPGALIGCPGGSSSPMRRETSVGFQNGLNYIAIDVRGEQGSLAQSQPQPGDKNSWSRTRSLGGLLGTVGGSGASGVCGGPGTGALPSASTYASIDFLSHHLKEATVVKE
Consider B3, for which the binding result in test [1] is listed as “binds”; in test [3], “no binding (only cells without TCR stimulation)”; in test [4] it was “binds”.

B4: JAML (transmembrane glycoprotein, co-receptor) (receptor, UniProt Q80UL9 21-379)
chain: QGLPGLTVSSPQLRVHVGESVLMGCVVQRTEEKHVDRVDWLFSKDKDDASEYVLFYYSNLSVPTGRFQNRSHLVGDTFHNDGSLLLQDVQKADEGIYTCEIRLKNESMVMKKPVELWVLPEEPKDLRVRVGDTTQMRCSIQSTEEKRVTKVNWMFSSGSHTEEETVLSYDSNMRSGKFQSLGRFRNRVDLTGDISRNDGSIKLQTVKESDQGIYTCSIYVGKLESRKTIVLHVVQDEFQRTISPTPPTDKGQQGILNGNQLVIIVGIVCATFLLLPVLILIVKKAKWNKSSVSSMASVKSLENKEKINPEKHIYSSITTWETTERGISGESEGTYMTMNPVWPSSPKASSLVRSSVRSK
For B4, the binding entry in test [1] was “binds”.
